US20200093843A1, “COMPOUNDS FOR TREATMENT OF INTRACTABLE EPILEPSY AND DOORS SYNDROME” (VIB VZW, priority 2016, published 2020)
At least one structure is not confirmed: it was looked up by name or label, or the drawing left a doubt.

System: sky^1/2 mutants expressing Sky^R79C
Experiment: Seizure assay in drug-fed flies
Type: in vivo, Drosophila
Conditions: up to 8 days
Procedure: To assure that stimulation of PI(4,5)P2 levels in vivo can rescue the defects associated with the Skywalker cationic pocket mutants (Sky^R79C), a commercially available alkyl phospholipid compound, Miltefosine, with known impact on PI(4,5)P2 levels was tested for treatment of gender selected adult 4-7 day old sky^1/2 flies with cationic pocket mutations. For drug feeding, 10-20 flies per treatment vial were maintained in a 12 h light and dark cycle to maintain circadian rhythm, while the analysis was performed on 5 flies per vial for flight, after acclimatization to the test chamber, and 10 flies per vial for stimulation or behavioural challenge by vortexing. In total n=20 flies were analyzed per treatment as well as for the control flies reared on normal food (mock-treated). The effect of Miltefosine (Sigma, M5571) daily administered in dyed food at 50 μg/mL or at 100 μg/mL was tested over a feeding period of 2 and 8 days of drug exposure, after which animal behaviour was analyzed via flight and seizure assays.
Each data point represents averages of 10 animals tested over 8 days and analyzed per drug treatment as well as the control flies reared on normal food (mock-treated).
For drug treatment, a concentration range between […] was tested for daily administration. […]

SMILES | effect on number of seizures (500 μg/mL, oral uptake in food) | effect on seizures (400-1000 μg/mL daily in dyed food)
CCCCCCCCCCCCCCCCCCOCC(COP(=O)([O-])OCC[N+](C)(C)C)OC (centres unmarked) [Edelfosine] | decrease of the number of seizures, albeit not at significantly different levels as compared to the control | 
CCCCCCCC/C=C\CCCCCCCCCCCCOP(=O)([O-])OCC[N+](C)(C)C [Erufosine] |  | positive effect
